Results as given in paper PMC6221024.
These are yes or no findings as the source states them, for the method shown. Binding seen in cells or lysates may run through a third protein.

Biological target: T1, syndecan‐4 (rat (endogenous in soleus muscle)) (UniProt P34901)
T1 sequence (chain, heparan sulfate chains attached to the ectodomain): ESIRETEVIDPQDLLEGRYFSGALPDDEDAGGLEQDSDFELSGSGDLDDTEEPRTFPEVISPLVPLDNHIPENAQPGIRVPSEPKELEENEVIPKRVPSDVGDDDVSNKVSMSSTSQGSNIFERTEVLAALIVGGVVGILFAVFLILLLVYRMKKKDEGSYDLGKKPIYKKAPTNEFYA
Assay: co-IP; rat soleus muscle homogenates, un-injured (day 0) and 3 days after notexin injury; pre-cleared with Protein A/G beads; overnight with rabbit anti-myostatin (AB3239) or anti-SDC4 antibody, then Protein A/G; washed with 25 mM Tris, 150 mM NaCl, pH 7.2; eluted with 0.2 M glycin pH 2.5; immunoblot

## mature myostatin (from UniProt O35312 268-376) (ligand)
  binding: no binding
